± gives the standard deviation of the averaged measurements. The entries are a selection whose mix differs from that of the whole data set.

Protein sequences, listed by entry. Tags and fused reporters are not part of them. Lines headed by an entry give the natural chain unless they say otherwise; changes in a name come on top.
UniProt Q9NXV6: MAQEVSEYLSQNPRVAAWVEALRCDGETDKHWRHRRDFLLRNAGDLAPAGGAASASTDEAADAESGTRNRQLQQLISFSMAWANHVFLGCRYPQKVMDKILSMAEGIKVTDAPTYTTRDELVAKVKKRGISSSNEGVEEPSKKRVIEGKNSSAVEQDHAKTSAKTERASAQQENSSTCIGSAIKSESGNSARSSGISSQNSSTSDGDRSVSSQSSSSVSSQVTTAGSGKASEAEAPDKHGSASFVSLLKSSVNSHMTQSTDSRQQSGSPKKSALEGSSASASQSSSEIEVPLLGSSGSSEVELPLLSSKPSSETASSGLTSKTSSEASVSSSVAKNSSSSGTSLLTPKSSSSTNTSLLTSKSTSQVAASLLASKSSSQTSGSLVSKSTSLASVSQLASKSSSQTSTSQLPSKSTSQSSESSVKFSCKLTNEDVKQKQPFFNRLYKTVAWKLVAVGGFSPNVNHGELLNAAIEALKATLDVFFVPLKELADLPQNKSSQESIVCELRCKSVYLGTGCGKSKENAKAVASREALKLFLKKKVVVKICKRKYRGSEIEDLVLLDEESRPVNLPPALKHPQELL
UniProt Q9NUQ2: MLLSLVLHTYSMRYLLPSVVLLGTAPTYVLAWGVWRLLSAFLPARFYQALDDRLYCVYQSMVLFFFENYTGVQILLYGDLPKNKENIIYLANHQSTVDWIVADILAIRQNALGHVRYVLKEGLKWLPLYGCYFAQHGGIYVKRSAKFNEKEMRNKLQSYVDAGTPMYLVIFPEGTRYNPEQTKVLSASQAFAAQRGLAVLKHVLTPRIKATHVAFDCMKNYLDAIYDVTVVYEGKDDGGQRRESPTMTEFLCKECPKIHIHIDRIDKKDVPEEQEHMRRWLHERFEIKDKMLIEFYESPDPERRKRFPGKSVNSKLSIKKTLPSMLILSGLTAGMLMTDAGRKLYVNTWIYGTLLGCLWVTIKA
UniProt Q9NQG7: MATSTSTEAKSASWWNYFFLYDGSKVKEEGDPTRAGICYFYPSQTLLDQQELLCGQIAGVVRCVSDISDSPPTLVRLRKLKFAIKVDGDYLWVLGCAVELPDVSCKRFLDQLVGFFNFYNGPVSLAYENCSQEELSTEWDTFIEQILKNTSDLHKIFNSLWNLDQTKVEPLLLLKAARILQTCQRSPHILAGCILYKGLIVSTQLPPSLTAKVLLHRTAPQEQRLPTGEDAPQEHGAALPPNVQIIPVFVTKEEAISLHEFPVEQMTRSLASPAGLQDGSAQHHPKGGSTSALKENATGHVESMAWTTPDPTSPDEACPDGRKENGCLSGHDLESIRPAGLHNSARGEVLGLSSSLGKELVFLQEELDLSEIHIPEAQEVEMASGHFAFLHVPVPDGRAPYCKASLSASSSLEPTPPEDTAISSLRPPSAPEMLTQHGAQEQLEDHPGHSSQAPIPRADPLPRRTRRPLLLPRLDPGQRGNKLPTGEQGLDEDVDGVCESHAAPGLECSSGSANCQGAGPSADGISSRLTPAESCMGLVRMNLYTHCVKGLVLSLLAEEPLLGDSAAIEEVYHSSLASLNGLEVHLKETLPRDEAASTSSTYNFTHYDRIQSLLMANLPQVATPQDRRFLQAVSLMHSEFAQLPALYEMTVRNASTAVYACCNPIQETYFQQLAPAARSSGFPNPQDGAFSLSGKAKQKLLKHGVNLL
UniProt Q9NPA0: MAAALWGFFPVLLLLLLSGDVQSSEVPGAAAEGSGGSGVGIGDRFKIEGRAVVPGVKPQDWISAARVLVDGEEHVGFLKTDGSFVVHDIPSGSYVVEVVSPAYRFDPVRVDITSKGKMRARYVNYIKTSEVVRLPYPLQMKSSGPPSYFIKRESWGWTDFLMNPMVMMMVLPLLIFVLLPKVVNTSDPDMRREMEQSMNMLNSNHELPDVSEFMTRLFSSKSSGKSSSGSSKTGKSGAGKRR
UniProt Q9NSA3: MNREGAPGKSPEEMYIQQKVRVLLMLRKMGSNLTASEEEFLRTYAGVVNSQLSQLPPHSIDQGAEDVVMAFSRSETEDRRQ
UniProt Q9NV88, whole entry: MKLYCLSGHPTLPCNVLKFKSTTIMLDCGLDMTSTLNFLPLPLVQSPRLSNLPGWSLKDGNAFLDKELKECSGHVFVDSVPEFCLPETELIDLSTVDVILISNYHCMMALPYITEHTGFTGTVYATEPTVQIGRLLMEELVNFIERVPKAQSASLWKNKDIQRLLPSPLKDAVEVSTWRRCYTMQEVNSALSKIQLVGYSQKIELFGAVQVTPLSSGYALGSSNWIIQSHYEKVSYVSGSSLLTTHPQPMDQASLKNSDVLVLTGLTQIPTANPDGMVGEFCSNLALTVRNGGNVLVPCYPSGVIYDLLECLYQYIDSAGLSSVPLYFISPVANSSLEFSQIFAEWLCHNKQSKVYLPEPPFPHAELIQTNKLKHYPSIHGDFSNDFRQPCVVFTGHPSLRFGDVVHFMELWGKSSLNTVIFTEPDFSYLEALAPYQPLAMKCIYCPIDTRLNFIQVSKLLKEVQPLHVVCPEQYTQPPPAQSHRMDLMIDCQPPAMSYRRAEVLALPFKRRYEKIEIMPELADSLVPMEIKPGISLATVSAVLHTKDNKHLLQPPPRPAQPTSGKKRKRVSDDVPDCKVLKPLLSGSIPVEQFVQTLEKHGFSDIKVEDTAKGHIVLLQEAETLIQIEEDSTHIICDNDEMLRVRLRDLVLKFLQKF
UniProt Q9NYJ8: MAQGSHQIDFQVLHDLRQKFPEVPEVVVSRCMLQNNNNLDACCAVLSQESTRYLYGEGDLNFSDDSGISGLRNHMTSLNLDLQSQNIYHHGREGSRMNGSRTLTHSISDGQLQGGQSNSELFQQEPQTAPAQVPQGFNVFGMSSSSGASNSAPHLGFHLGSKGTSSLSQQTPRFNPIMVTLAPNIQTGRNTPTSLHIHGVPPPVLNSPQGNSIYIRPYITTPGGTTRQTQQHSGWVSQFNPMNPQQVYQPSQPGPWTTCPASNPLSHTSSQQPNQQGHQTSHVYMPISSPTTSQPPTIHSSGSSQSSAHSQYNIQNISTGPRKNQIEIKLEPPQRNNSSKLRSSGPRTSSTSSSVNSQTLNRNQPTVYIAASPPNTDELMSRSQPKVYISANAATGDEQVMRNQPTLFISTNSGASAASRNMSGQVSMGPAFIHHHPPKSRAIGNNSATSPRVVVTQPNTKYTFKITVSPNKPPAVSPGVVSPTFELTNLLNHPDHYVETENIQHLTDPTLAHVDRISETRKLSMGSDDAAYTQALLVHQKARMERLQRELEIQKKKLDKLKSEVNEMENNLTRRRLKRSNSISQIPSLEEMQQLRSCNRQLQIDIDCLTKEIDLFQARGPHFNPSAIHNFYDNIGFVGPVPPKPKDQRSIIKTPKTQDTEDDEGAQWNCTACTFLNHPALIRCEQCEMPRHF
UniProt Q9NR50: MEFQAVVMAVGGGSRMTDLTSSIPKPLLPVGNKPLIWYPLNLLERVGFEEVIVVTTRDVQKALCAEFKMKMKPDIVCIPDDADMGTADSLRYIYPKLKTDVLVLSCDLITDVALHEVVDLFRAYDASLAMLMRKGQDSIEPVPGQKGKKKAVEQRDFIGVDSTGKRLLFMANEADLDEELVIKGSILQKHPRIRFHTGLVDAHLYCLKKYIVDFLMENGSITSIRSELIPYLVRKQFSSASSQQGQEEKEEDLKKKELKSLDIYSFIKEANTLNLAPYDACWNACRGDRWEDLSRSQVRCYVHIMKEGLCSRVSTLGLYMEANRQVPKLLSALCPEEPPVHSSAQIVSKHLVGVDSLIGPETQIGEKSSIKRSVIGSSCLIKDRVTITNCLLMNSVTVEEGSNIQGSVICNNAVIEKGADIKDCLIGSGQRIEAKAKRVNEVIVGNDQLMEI
UniProt Q9P086: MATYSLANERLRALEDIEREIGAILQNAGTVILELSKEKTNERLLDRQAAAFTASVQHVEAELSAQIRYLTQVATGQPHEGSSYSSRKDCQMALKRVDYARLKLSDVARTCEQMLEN
UniProt Q9P0J0, whole entry: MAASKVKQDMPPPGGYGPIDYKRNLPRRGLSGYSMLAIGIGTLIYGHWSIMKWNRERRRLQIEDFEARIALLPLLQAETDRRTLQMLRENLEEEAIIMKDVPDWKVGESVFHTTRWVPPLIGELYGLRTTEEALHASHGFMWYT
UniProt Q9NSY1, whole entry, looked up: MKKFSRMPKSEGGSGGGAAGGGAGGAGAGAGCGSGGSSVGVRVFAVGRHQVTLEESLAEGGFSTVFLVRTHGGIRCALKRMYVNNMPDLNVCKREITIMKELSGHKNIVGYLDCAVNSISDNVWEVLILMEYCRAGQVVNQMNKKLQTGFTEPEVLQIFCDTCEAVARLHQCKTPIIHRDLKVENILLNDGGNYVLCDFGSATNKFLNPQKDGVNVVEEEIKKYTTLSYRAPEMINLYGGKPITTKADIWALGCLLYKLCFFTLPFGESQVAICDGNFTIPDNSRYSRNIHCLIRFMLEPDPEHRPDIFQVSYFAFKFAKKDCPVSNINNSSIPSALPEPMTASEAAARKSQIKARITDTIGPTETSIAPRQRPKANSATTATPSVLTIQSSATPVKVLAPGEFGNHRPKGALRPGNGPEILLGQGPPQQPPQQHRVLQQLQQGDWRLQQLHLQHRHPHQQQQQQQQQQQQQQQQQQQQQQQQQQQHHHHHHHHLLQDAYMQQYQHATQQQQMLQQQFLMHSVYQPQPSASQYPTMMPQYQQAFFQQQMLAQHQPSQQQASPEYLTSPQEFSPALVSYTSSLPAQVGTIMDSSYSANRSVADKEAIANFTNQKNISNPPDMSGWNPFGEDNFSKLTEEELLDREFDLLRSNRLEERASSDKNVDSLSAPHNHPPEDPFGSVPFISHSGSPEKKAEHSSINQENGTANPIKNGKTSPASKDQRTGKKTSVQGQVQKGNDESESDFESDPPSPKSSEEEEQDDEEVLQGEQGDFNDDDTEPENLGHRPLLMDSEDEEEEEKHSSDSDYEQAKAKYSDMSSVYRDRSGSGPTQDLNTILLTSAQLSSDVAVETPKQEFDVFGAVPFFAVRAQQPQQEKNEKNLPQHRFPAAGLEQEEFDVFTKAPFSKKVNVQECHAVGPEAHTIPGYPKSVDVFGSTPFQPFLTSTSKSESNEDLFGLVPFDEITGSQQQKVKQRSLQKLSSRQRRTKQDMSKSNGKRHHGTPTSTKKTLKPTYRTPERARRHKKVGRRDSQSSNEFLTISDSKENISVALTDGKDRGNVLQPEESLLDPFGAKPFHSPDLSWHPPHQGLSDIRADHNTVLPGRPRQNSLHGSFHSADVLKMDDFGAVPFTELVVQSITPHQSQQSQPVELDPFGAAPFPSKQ
UniProt Q9NXR1: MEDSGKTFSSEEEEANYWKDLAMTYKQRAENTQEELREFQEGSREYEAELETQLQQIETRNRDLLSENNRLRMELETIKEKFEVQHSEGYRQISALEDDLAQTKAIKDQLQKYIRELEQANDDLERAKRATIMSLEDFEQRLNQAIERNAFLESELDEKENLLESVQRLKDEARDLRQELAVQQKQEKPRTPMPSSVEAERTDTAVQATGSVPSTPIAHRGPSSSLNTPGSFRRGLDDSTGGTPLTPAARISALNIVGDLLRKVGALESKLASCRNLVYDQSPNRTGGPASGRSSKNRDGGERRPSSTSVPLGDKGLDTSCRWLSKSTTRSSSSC
UniProt Q9NXC5: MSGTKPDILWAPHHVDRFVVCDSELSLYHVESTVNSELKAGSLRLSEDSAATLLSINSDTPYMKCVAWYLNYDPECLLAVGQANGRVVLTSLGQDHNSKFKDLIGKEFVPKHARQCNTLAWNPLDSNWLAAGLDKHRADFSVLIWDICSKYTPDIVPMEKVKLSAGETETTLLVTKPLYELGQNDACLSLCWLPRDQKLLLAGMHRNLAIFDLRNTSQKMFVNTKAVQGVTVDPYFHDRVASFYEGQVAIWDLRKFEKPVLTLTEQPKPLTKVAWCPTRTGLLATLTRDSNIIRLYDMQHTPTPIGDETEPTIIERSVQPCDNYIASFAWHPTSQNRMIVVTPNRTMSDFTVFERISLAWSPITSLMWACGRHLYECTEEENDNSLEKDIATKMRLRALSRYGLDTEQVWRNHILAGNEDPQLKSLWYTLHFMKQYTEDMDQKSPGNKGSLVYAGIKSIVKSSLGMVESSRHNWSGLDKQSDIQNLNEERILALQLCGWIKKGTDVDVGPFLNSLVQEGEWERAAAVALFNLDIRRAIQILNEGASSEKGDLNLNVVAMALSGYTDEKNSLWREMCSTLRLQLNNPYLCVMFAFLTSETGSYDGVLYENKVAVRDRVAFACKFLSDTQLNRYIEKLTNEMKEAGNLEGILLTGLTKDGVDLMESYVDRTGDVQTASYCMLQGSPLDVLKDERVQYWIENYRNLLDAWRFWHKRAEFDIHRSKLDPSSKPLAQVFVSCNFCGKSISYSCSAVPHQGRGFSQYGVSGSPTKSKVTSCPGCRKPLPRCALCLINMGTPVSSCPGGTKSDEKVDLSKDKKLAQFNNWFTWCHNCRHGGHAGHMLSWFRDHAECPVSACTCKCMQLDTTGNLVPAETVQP
UniProt Q9NWV4: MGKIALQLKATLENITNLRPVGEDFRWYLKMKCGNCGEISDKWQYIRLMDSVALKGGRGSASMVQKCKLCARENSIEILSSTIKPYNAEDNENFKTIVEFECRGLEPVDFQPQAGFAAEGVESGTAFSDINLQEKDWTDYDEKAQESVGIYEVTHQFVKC

Data on 36 targets can be found in the supplement of paper PMC6411743.

Compound in the first test: Nc1ncnc2c1ncn2[C@@H]1O[C@H](COP(=O)(O)OP(=O)(O)OP(=O)(O)O)[C@@H](O)[C@H]1O [adenosine triphosphate]
Briefly: NP40-soluble protein abundance relative to vehicle (solubility fold change) (ratio); higher = more soluble protein in presence of ATP. The note with it: concentration: 6mM. The procedure, abridged: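 Crude Jurkat lysate, prepared by Dounce homogenisation, was exposed to eight concentrations from 0.1 to 10 mM for 10 min at room temperature and then 3 min at 37 °C. Solubilisation used 0.8% NP40 with benzonase for 60 min at 4 °C, followed by ultracentrifugation and TMT labelling of the supernatant for LC-MS/MS. After vsn normalisation of intensities, each value is the fold change against the detergent-processed vehicle within each replicate, across three independent experiments.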
For KIF15 (UniProt Q9NS87), the NP40-soluble protein abundance was 1 ± 0.039.

Turning to UniProt Q9NRW1, the NP40-soluble protein abundance was 0.956 ± 0.093.

Turning to CDKN2AIP (UniProt Q9NXV6), the NP40-soluble protein abundance is 1 ± 0.034.

Turning to AGPAT5 (UniProt Q9NUQ2), the NP40-soluble protein abundance is 1.056 ± 0.008.

For the target SERINC1 (UniProt Q9NRX5), the NP40-soluble protein abundance is 1.04 ± 0.1.

In the case of SMARCAL1 (UniProt Q9NZC9), the NP40-soluble protein abundance was 1.04 ± 0.04.

As for UniProt Q9NVH2 and related entries, the NP40-soluble protein abundance was 0.972 ± 0.036.

UniProt Q9NXR7: the NP40-soluble protein abundance came out at 0.973 ± 0.022.

UniProt Q9NRR4 and related entries: the NP40-soluble protein abundance came to 1.39 ± 0.24.

Turning to SLC17A5 (UniProt Q9NRA2), the NP40-soluble protein abundance stood at 0.845 ± 0.06.

HPS4 (UniProt Q9NQG7): the NP40-soluble protein abundance came to 1.03 ± 0.093.

In the case of UniProt Q9NPA0, the NP40-soluble protein abundance worked out at 0.927 ± 0.026.

With CTNNBIP1 (UniProt Q9NSA3), the NP40-soluble protein abundance is 0.989 ± 0.17.

Turning to UniProt Q9NV88 and related entries, the NP40-soluble protein abundance came out at 1.05 ± 0.024.

Take UniProt Q9NYJ8: the NP40-soluble protein abundance is 0.9507 ± 0.0047.

On to EIF2B3 (UniProt Q9NR50), for which the NP40-soluble protein abundance was 0.958 ± 0.031.

Regarding MED11 (UniProt Q9P086), the NP40-soluble protein abundance came to 1.09 ± 0.3.

For UniProt Q9NVK5-2, the NP40-soluble protein abundance was found to be 0.971 ± 0.13.

PLSCR3 (UniProt Q9NRY6): the NP40-soluble protein abundance is 1.04 ± 0.061.

As for UniProt Q9P0J0 and related entries, the NP40-soluble protein abundance stood at 0.915 ± 0.045.

UniProt Q9NRP2: the NP40-soluble protein abundance is 0.969 ± 0.16.

As for UniProt Q9NRG7-2|Q9NRG7, the NP40-soluble protein abundance is 1.07 ± 0.064.

In the case of OCIAD1 (UniProt Q9NX40), the NP40-soluble protein abundance is 0.941 ± 0.032.

Turning to KIF13B (UniProt Q9NQT8), the NP40-soluble protein abundance was determined as 0.999 ± 0.024.

In the case of UniProt Q9NSY1, the NP40-soluble protein abundance worked out at 1.44 ± 0.08.

As for UniProt Q9NQ88, the NP40-soluble protein abundance came out at 0.952 ± 0.03.

With KCMF1 (UniProt Q9P0J7), the NP40-soluble protein abundance came out at 0.948 ± 0.19.

Regarding SNRK (UniProt Q9NRH2), the NP40-soluble protein abundance came out at 0.99 ± 0.038.

In the case of UniProt Q9NYV4 and related entries, the NP40-soluble protein abundance came to 1.56 ± 0.14.

In the case of FAM118A (UniProt Q9NWS6), the NP40-soluble protein abundance is 0.943 ± 0.052.

On to CHMP5 (UniProt Q9NZZ3), for which the NP40-soluble protein abundance was found to be 0.94 ± 0.068.

As to “UniProt Q9NW15-5|C9J670 and related entries”, the NP40-soluble protein abundance was 0.958 ± 0.14.

On to UniProt Q9NVM4 and related entries, for which the NP40-soluble protein abundance is 0.973 ± 0.099.

As for UniProt Q9NXR1 and related entries, the NP40-soluble protein abundance came out at 0.983 ± 0.081.

Regarding MIOS (UniProt Q9NXC5), the NP40-soluble protein abundance amounted to 1.21 ± 0.055.

For UniProt Q9NWV4, the NP40-soluble protein abundance stood at 0.97 ± 0.025.

Staying with this test, now noted: concentration: 8mM.
As for KIF15 (UniProt Q9NS87), the NP40-soluble protein abundance came to 0.961 ± 0.038.

Consider UniProt Q9NRW1, for which the NP40-soluble protein abundance is 0.941 ± 0.045.

As for CDKN2AIP (UniProt Q9NXV6), the NP40-soluble protein abundance is 0.959 ± 0.032.

On to AGPAT5 (UniProt Q9NUQ2), for which the NP40-soluble protein abundance was determined as 1.11 ± 0.05.

For SERINC1 (UniProt Q9NRX5), the NP40-soluble protein abundance is 1.09 ± 0.18.

SMARCAL1 (UniProt Q9NZC9): the NP40-soluble protein abundance was 1.03 ± 0.049.

Regarding UniProt Q9NVH2 and related entries, the NP40-soluble protein abundance was determined as 1.06 ± 0.061.

As for UniProt Q9NXR7, the NP40-soluble protein abundance was 0.992 ± 0.067.

In the case of UniProt Q9NRR4 and related entries, the NP40-soluble protein abundance is 1.37 ± 0.26.

SLC17A5 (UniProt Q9NRA2): the NP40-soluble protein abundance was determined as 0.8772 ± 0.0026.

Turning to HPS4 (UniProt Q9NQG7), the NP40-soluble protein abundance came out at 1.03 ± 0.093.

With UniProt Q9NPA0, the NP40-soluble protein abundance was 0.931 ± 0.018.

CTNNBIP1 (UniProt Q9NSA3): the NP40-soluble protein abundance was 0.865 ± 0.03.

As for UniProt Q9NV88 and related entries, the NP40-soluble protein abundance turned out to be 1.11 ± 0.022.

For the target UniProt Q9NYJ8, the NP40-soluble protein abundance was found to be 1.09 ± 0.1.

With EIF2B3 (UniProt Q9NR50), the NP40-soluble protein abundance is 1.02 ± 0.022.

For MED11 (UniProt Q9P086), the NP40-soluble protein abundance was 1.02 ± 0.14.

As to UniProt Q9NVK5-2, the NP40-soluble protein abundance is 0.957 ± 0.063.

Take PLSCR3 (UniProt Q9NRY6): the NP40-soluble protein abundance turned out to be 1.01 ± 0.066.

As to UniProt Q9P0J0 and related entries, the NP40-soluble protein abundance worked out at 1.008 ± 0.0088.

With UniProt Q9NRP2, the NP40-soluble protein abundance worked out at 0.831 ± 0.16.

For the target UniProt Q9NRG7-2|Q9NRG7, the NP40-soluble protein abundance worked out at 1.04 ± 0.054.

On to OCIAD1 (UniProt Q9NX40), for which the NP40-soluble protein abundance was found to be 0.965 ± 0.047.

For the target KIF13B (UniProt Q9NQT8), the NP40-soluble protein abundance turned out to be 1.01 ± 0.016.

With UniProt Q9NSY1, the NP40-soluble protein abundance amounted to 1.44 ± 0.081.

With UniProt Q9NQ88, the NP40-soluble protein abundance amounted to 0.949 ± 0.013.

In the case of KCMF1 (UniProt Q9P0J7), the NP40-soluble protein abundance turned out to be 0.949 ± 0.12.

Turning to SNRK (UniProt Q9NRH2), the NP40-soluble protein abundance amounted to 0.969 ± 0.068.

On to UniProt Q9NYV4 and related entries, for which the NP40-soluble protein abundance stood at 1.5 ± 0.11.

Consider FAM118A (UniProt Q9NWS6), for which the NP40-soluble protein abundance is 0.965 ± 0.095.

As to CHMP5 (UniProt Q9NZZ3), the NP40-soluble protein abundance amounted to 0.936 ± 0.035.

Take “UniProt Q9NW15-5|C9J670 and related entries”: the NP40-soluble protein abundance was found to be 1.02 ± 0.17.

Consider UniProt Q9NVM4 and related entries, for which the NP40-soluble protein abundance stood at 1.03 ± 0.062.

UniProt Q9NXR1 and related entries: the NP40-soluble protein abundance is 0.915 ± 0.05.

Consider MIOS (UniProt Q9NXC5), for which the NP40-soluble protein abundance came out at 1.33 ± 0.051.

For the target UniProt Q9NWV4, the NP40-soluble protein abundance was determined as 0.942 ± 0.03.

The same test, now with this note: concentration: 10mM.
For KIF15 (UniProt Q9NS87), the NP40-soluble protein abundance was found to be 0.966 ± 0.055.

UniProt Q9NRW1: the NP40-soluble protein abundance turned out to be 1.03 ± 0.1.

As to CDKN2AIP (UniProt Q9NXV6), the NP40-soluble protein abundance amounted to 0.977 ± 0.018.

Turning to AGPAT5 (UniProt Q9NUQ2), the NP40-soluble protein abundance turned out to be 1.06 ± 0.066.

Consider SERINC1 (UniProt Q9NRX5), for which the NP40-soluble protein abundance was 1.06 ± 0.17.

Take SMARCAL1 (UniProt Q9NZC9): the NP40-soluble protein abundance stood at 1.09 ± 0.02.

As to UniProt Q9NVH2 and related entries, the NP40-soluble protein abundance stood at 1.11 ± 0.027.

As to UniProt Q9NXR7, the NP40-soluble protein abundance stood at 0.987 ± 0.05.

With UniProt Q9NRR4 and related entries, the NP40-soluble protein abundance amounted to 1.42 ± 0.26.

Take SLC17A5 (UniProt Q9NRA2): the NP40-soluble protein abundance came out at 0.888 ± 0.036.

As to HPS4 (UniProt Q9NQG7), the NP40-soluble protein abundance worked out at 0.979 ± 0.094.

Take UniProt Q9NPA0: the NP40-soluble protein abundance was 0.948 ± 0.021.

With CTNNBIP1 (UniProt Q9NSA3), the NP40-soluble protein abundance was 0.879 ± 0.085.

Regarding UniProt Q9NV88 and related entries, the NP40-soluble protein abundance came out at 1.08 ± 0.057.

With UniProt Q9NYJ8, the NP40-soluble protein abundance came to 0.986 ± 0.026.

Regarding EIF2B3 (UniProt Q9NR50), the NP40-soluble protein abundance turned out to be 0.991 ± 0.018.

With MED11 (UniProt Q9P086), the NP40-soluble protein abundance stood at 1 ± 0.14.

UniProt Q9NVK5-2: the NP40-soluble protein abundance amounted to 0.926 ± 0.082.

For PLSCR3 (UniProt Q9NRY6), the NP40-soluble protein abundance came out at 0.988 ± 0.032.

Regarding UniProt Q9P0J0 and related entries, the NP40-soluble protein abundance stood at 0.901 ± 0.046.

As for UniProt Q9NRP2, the NP40-soluble protein abundance is 0.796 ± 0.18.

Consider UniProt Q9NRG7-2|Q9NRG7, for which the NP40-soluble protein abundance is 1.1 ± 0.049.

For OCIAD1 (UniProt Q9NX40), the NP40-soluble protein abundance was found to be 0.933 ± 0.045.

For the target KIF13B (UniProt Q9NQT8), the NP40-soluble protein abundance is 1.01 ± 0.029.

Regarding UniProt Q9NSY1, the NP40-soluble protein abundance was determined as 1.55 ± 0.093.

Consider UniProt Q9NQ88, for which the NP40-soluble protein abundance stood at 0.953 ± 0.013.

For KCMF1 (UniProt Q9P0J7), the NP40-soluble protein abundance is 0.907 ± 0.06.

Turning to SNRK (UniProt Q9NRH2), the NP40-soluble protein abundance came out at 0.985 ± 0.035.

Regarding UniProt Q9NYV4 and related entries, the NP40-soluble protein abundance worked out at 1.56 ± 0.11.

On to FAM118A (UniProt Q9NWS6), for which the NP40-soluble protein abundance was found to be 0.941 ± 0.055.

Turning to CHMP5 (UniProt Q9NZZ3), the NP40-soluble protein abundance came to 0.819 ± 0.12.

With “UniProt Q9NW15-5|C9J670 and related entries”, the NP40-soluble protein abundance is 0.939 ± 0.074.

With UniProt Q9NVM4 and related entries, the NP40-soluble protein abundance is 1 ± 0.054.

As for UniProt Q9NXR1 and related entries, the NP40-soluble protein abundance stood at 0.927 ± 0.077.

For MIOS (UniProt Q9NXC5), the NP40-soluble protein abundance turned out to be 1.36 ± 0.071.

As for UniProt Q9NWV4, the NP40-soluble protein abundance is 0.933 ± 0.036.
